Experimental data as given in article PMC11357992, “Non-invasive mapping of systemic neutrophil dynamics upon cardiovascular injury” (Nature Cardiovascular Research, 2023).
Results are given in words; binding and its absence hold for the method and conditions named. Some results given as binding are weak or reduced against the parent protein; the word gives no strength.

T1: murine CD177 on murine neutrophils (mouse (endogenous in neutrophils)) (UniProt Q8R2S8)
T1 sequence: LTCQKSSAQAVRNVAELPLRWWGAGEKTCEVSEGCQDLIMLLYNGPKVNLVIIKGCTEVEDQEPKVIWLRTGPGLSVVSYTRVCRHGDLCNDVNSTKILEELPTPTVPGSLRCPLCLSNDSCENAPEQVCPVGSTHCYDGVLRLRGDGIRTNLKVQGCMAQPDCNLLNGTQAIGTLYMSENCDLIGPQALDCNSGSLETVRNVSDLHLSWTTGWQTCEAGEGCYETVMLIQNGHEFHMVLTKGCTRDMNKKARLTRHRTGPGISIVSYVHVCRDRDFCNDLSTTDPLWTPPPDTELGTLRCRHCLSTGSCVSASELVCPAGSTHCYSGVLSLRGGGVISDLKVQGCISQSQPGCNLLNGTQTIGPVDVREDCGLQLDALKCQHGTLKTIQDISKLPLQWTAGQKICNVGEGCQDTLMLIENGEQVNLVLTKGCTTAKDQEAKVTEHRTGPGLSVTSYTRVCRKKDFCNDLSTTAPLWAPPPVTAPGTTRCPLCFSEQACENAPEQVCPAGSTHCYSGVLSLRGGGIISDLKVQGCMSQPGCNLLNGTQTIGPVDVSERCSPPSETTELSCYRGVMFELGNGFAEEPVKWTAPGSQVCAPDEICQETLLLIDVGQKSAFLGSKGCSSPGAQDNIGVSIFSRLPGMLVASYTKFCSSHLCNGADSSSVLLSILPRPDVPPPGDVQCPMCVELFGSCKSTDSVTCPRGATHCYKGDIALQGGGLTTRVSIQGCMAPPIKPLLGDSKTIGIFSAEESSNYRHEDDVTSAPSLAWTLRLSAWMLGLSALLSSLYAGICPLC

T2: human CD177 on transiently transfected CHO cells (human) (UniProt Q8N6Q3)
T2 sequence: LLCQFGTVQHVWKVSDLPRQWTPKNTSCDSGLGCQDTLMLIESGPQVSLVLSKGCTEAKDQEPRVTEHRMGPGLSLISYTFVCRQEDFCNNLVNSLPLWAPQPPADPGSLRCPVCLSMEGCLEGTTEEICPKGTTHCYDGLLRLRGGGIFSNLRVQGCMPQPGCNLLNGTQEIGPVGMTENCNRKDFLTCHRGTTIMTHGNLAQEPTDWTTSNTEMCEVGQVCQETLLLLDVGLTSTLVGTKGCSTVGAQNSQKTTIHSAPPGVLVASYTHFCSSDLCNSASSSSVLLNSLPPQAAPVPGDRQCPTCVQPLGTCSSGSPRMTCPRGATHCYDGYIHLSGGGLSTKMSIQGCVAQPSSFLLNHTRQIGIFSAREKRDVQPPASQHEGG


Columns and labels:
[1] = molecular target: T1, murine CD177 on murine neutrophils (mouse (endogenous in neutrophils)); test: flow cytometry on cells; immune cells isolated from blood (human, pig, rat, mouse), 1 × 10^5 cells a well, free fluorescent peptide 1 µg ml^−1 for 20 min at 4 °C; human neutrophils co-stained with anti-CD177 monoclonal antibody; only the binder purified
[2] = molecular target: T2, human CD177 on transiently transfected CHO cells (human); test: flow cytometry on cells; CHO cells transiently transfected with human CD177; about 1 × 10^5 cells stained with 1 µg ml^−1 hNP or Con for 20 min at 4 °C; untransfected cells as control; only the binder purified

Binder | binding [1] | binding [2]
DLVTSKLQVGGGC (carboxyfluorescein on the N-terminus; C-terminal cysteine with free sulfhydryl) [human neutrophil-specific peptide (hNP), free peptide] | no binding (tested: 1 µg ml^−1) | binds
KQLSEMVTDGGGC (carboxyfluorescein on the N-terminus; C-terminal cysteine with free sulfhydryl) [randomized control peptide related to hNP] |  | no binding (tested: 1 µg ml^−1)
